Results taken from publication PMC5962103.
Weaker means in comparison with the reference protein, sequence or condition of that experiment. For some of these results: The exact form of at least one protein or probe is not confirmed.

Sequences of proteins named here, by UniProt entry; tags and fusion partners are left off. Residues count along the entry.
UniProt Q5VXU9, 570-1111: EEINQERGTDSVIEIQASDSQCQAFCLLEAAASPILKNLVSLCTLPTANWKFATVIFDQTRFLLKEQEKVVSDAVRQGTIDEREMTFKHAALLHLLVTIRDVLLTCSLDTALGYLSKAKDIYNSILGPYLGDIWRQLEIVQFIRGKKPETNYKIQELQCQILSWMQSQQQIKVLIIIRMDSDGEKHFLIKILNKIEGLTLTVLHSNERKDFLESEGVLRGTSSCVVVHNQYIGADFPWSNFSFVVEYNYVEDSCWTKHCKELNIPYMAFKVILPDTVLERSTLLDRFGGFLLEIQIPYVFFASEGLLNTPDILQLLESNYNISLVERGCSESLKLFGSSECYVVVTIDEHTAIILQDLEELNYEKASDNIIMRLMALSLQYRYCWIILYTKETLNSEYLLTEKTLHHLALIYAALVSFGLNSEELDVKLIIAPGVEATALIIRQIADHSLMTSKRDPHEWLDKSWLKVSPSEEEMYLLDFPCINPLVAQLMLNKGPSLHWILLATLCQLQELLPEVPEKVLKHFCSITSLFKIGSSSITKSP
UniProt Q5VXU9, 570-1041: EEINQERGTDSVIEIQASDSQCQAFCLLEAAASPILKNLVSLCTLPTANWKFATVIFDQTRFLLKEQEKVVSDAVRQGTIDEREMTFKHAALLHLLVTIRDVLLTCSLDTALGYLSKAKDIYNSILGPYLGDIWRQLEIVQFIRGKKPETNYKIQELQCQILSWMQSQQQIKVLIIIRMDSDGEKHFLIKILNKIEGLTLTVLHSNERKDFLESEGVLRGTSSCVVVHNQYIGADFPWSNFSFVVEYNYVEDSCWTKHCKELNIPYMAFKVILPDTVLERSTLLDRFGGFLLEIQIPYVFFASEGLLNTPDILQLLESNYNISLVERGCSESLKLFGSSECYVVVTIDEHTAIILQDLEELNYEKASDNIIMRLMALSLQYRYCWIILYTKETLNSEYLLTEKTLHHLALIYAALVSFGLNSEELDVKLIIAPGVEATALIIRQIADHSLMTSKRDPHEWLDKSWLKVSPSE

Legend:
[1] = molecular target: SHOC1 570-1111 (Homo sapiens) (UniProt Q5VXU9); experiment: EMSA; settings: 2 mM Mg2+, 20 mM Tris-HCl pH 7.4, 1 mM DTT, 2 mM MgCl2, 100 mM NaCl, 20 ul, 10 min at 37 C, 8% PAGE in 1x TAE, recombinant protein, residues 570-1111, label: 5'-32P on #1
[2] = molecular target: SHOC1 570-1041 (Homo sapiens) (UniProt Q5VXU9); experiment: EMSA; settings: 2 mM Mg2+; 20 mM Tris-HCl pH 7.4, 1 mM DTT, 2 mM MgCl2, 100 mM NaCl, 20 ul, 10 min at 37 C; 8% PAGE in 1x TAE; recombinant protein; residues 570-1041; label: 5'-32P on #1; single-stranded DNA

“ACGCTGCCGAATTCTACCAGTGCCTTGCTAGGACATCTTTGCCCACCTGCAGGTTCACCC / CGATAGTCGGATCCTCTAGACAGCTCCATGTAGCAAGGCACTGGTAGAATTCGGCAGCGT [splayed arm (#1, #4)]”: binds more weakly ([1]; folded or branched DNA).

“ACGCTGCCGAATTCTACCAGTGCCTTGCTAGGACATCTTTGCCCACCTGCAGGTTCACCC / GGGTGAACCTGCAGGTGGGCAAAGATGTCCTAGCAAGGCACTGGTAGAATTCGGCAGCGT / ACGGCATAAAGCTTGACGATTACAACAGATCATGGAGCTGTCTAGAGGATCCGACTATCG / CGATAGTCGGATCCTCTAGACAGCTCCATGTAGCAAGGCACTGGTAGAATTCGGCAGCGT [Holliday junction (#1, #2, #3, #4)]”: binds ([1]; folded or branched DNA).

“ACGCTGCCGAATTCTACCAGTGCCTTGCTAGGACATCTTTGCCCACCTGCAGGTTCACCC (double strand) [linear duplex (#1, #5)]”: binds more weakly [1].

“ACGCTGCCGAATTCTACCAGTGCCTTGCTAGGACATCTTTGCCCACCTGCAGGTTCACCC [single-stranded DNA (#1)]”: binds more weakly [2].
